Experimental findings from PubChem BioAssay AID266 (DTP/NCI, 2004) are described below.

This test deals with Nude mice, LX-1 lung xenograft intrarenal, tumor weight T/C. Description: NCI In Vivo Anticancer Drug Screen. Data for tumor model Human Lung LX-1 Xenograft (intrarenal inoculation) in NU/NU BALB/C (nude) mice. As to conditions: T/C endpoint: mean tumor weight change, higher T/C = larger tumour; for T/C: evaluated on day 11. The procedure: The antitumor activity of compounds was measured in mice bearing transplantable tumors. Survival or tumor size were measured and the results are expressed as the measurement made in the treated group (T) divided by the measurement made in the vehicle treated control group (C). The tumor model used in this assay is Human Lung LX-1 Xenograft (intrarenal inoculation) in NU/NU BALB/C (nude) mice
(A xenograft is tissue or cells of one species grown in another, often human tumour cells in immunodeficient mice.)

[1] abbreviates: dose: 100.0 mg/kg/injection, schedule: Q01DX010 (sc), vehicle: saline.
The mark [2] stands for this setting: dose: 16.0 mg/kg/injection, schedule: Q01DX010 (sc), vehicle: saline.

The list shows only some results of the screen, not a fair sample: it gathers tests that were run many times, whatever their T/C, doses with no T/C, and many T/C values between a quarter and a half above the control. Further doses and runs are listed elsewhere. T/C gives the treated animals as a percentage of the vehicle group. Schedules are NCI's codes, taken here to give the interval after Q, in days (D) or hours (H), and the number of doses after X. Some T/C values are followed by the survivors on the day toxicity was checked, most often the fifth; without a count, all were alive then. Some doses have a count of surviving animals in place of a T/C: the source holds a T/C of zero for them, seemingly a mark for toxic or unscored doses. Survivors were counted at the toxicity check, usually on the fifth day, unless a day is given; later deaths do not show.

As to `[N-]=[N+]=CC(=O)CCC(N)C(=O)O` (stereo not drawn), the survivor count (dose: 0.8 mg/kg/injection, schedule: Q01DX010 (sc), vehicle: saline) was 0 of 2 on day 11; the survivor count (dose: 3.13 mg/kg/injection, schedule: Q01DX010 (sc), vehicle: saline) was 0 of 2 on day 11; the survivor count (dose: 6.25 mg/kg/injection, schedule: Q01DX010 (sc), vehicle: saline) is given as 0 of 2 on day 11; the survivor count (dose: 12.5 mg/kg/injection, schedule: Q01DX010 (sc), vehicle: saline) is on record as 0 of 2 on day 11; the survivor count (dose: 25.0 mg/kg/injection, schedule: Q01DX010 (sc), vehicle: saline) is on record as 0 of 2 on day 11; the survivor count (dose: 50.0 mg/kg/injection, schedule: Q01DX010 (sc), vehicle: saline) is given as 0 of 2 on day 11. Also, the survivor count under setting [1] is on record as 0 of 2 on day 11.

Turning to `COc1cccc2c1C(=O)c1c(O)c3c(c(O)c1C2=O)C[C@@](O)(C(=O)CO)C[C@@H]3OC1CC(OC(C)=O)C(OC(C)=O)C(C)O1` (stereo partly drawn), the survivor count reads like this: (dose: 50.0 mg/kg/injection, schedule: Q01DX010 (sc), vehicle: distilled water + Tween-80) 1 of 3 on day 11; (dose: 100.0 mg/kg/injection, schedule: Q01DX010 (sc), vehicle: distilled water + Tween-80) 0 of 3 on day 11; (dose: 200.0 mg/kg/injection, schedule: Q01DX010 (sc), vehicle: distilled water + Tween-80) 0 of 3 on day 11.

Consider `Cc1cnc(/C=N\NC(N)=S)c2cccc(N)c12`, for which the survivor count (dose: 250.0 mg/kg/injection, schedule: Q04DX003 (ip), vehicle: saline with Tween-80) was 2 of 6 on day 11.

For `Cc1ccc(S(=O)(=O)N/N=C/C(Br)=C(/Br)C(=O)O)cc1`, the T/C (dose: 2.5 mg/kg/injection, schedule: Q04DX003 (sc), vehicle: saline) was 129 % of control.

Consider `CCCCCn1c(C)cc(/C=C\c2ccc3cc(C)ccc3[n+]2C)c1C`, for which the T/C (dose: 0.5 mg/kg/injection, schedule: Q01DX010 (sc), vehicle: Klucel (hydroxypropylcellulose) (HPC)) is 132 % of control.

Consider `C[n+]1c(-c2cccc3ccccc23)c2cc(N)ccc2c2ccccc21`, for which, under “dose: 3.0 mg/kg/injection, schedule: Q04DX003 (sc), vehicle: saline”, the T/C was 126 % of control. The survivor count (dose: 96.0 mg/kg/injection, schedule: Q04DX003 (sc), vehicle: saline) is 0 of 6 on day 11.

On to `O=C(Nc1cc(Cl)ccc1C(=O)O)c1cccc(C[n+]2ccccc2)c1`, for which the survivor count (dose: 600.0 mg/kg/injection, schedule: Q04DX003 (ip), vehicle: saline with Tween-80) was 2 of 6 on day 11 and the survivor count (dose: 1200.0 mg/kg/injection, schedule: Q04DX003 (ip), vehicle: saline with Tween-80) is reported as 0 of 6 on day 11.

For the compound `Cc1cc(=NO)cc(C)n1O`, where the note is “dose: 2400.0 mg/kg/injection, schedule: Q04DX003 (sc), vehicle: distilled water + alcohol”, the survivor count is 2 of 6 on day 11.

`Cn1c(=O)[nH]c2nncnc2c1=O`: the T/C (dose: 31.25 mg/kg/injection, schedule: Q04DX003 (sc), vehicle: water) is 127 % of control. Further, the survivor count reads like this: (dose: 125.0 mg/kg/injection, schedule: Q04DX003 (sc), vehicle: water) 1 of 6 on day 11; (dose: 250.0 mg/kg/injection, schedule: Q04DX003 (sc), vehicle: water) 1 of 6 on day 11.

As for `CN(N=O)C(N)=O`, where the note is “dose: 100.0 mg/kg/injection, schedule: Q01DX010 (sc), vehicle: saline with Tween-80”, the survivor count is recorded as 0 of 3 on day 11.

Regarding `CN(N=O)C(=O)N[C@@H](C=O)[C@@H](O)[C@H](O)[C@H](O)CO`, the survivor count runs as follows: (dose: 600.0 mg/kg/injection, schedule: Q04DX003 (sc), vehicle: saline) 0 of 6 on day 11; (dose: 1200.0 mg/kg/injection, schedule: Q04DX003 (sc), vehicle: saline) 0 of 6 on day 11.

Turning to `CCN(CC)CCNc1ccc(C)c2sc3ccccc3c(=O)c12`, the T/C reads like this: under setting [1], 135 % of control; (dose: 200.0 mg/kg/injection, schedule: Q01DX010 (sc), vehicle: saline) 131 % of control. For the same compound, for the setting “dose: 400.0 mg/kg/injection, schedule: Q01DX010 (sc), vehicle: saline”, the survivor count was 0 of 3 on day 11.

In the case of `CC(=O)C(O)N1C(=O)C=CC1=O` (stereo not drawn), where the note is “dose: 20.0 mg/kg/injection, schedule: Q01DX010 (sc), vehicle: saline”, the survivor count was 0 of 3 on day 11.

With `O=NN(CCCl)C(=O)NC1CCC(=O)NC1=O` (stereo not drawn), under “dose: 41.6 mg/kg/injection, schedule: Q04DX003 (sc), vehicle: saline with Tween-80”, the survivor count was 0 of 3 on day 11.

Consider `COc1cccc2c1C(=O)c1c(O)c3c(c(O)c1C2=O)C[C@@](O)(C(C)=O)C[C@@H]3OC1CC(N)C(O)C(C)O1` (stereo partly drawn), for which, under setting [2], the survivor count is given as 0 of 3 on day 11.

As to `O=CC(S)CO` (stereo not drawn), the survivor count (dose: 800.0 mg/kg/injection, schedule: Q04DX003 (sc), vehicle: suspension in saline) is 3 of 6 on day 11.

Take `O=C1N=C(Oc2ccccc2)SC1=O`: the survivor count (dose: 800.0 mg/kg/injection, schedule: Q04DX003 (sc), vehicle: saline with Tween-80) is on record as 2 of 6 on day 11.

As to `N[C@H](C(=O)O)[C@@H]1CC(Cl)=NO1`, where the note is “dose: 1.0 mg/kg/injection, schedule: Q01DX010 (sc), vehicle: saline”, the T/C is 128 % of control [2 of 2 alive on day 11]. For the same compound, the survivor count reads like this: (dose: 8.0 mg/kg/injection, schedule: Q01DX010 (sc), vehicle: saline) 1 of 2 on day 11; under setting [2], 1 of 2 on day 11; (dose: 64.0 mg/kg/injection, schedule: Q02DX005 (sc), vehicle: saline) 1 of 2 on day 11.

`CC1CCC(NC(=O)N(CCCl)N=O)CC1` (stereo not drawn): the survivor count is, setting by setting: (dose: 12.5 mg/kg/injection, schedule: Q01DX010 (sc), vehicle: Klucel (hydroxypropylcellulose) (HPC)) 0 of 3 on day 11; (dose: 25.0 mg/kg/injection, schedule: Q01DX010 (sc), vehicle: Klucel (hydroxypropylcellulose) (HPC)) 0 of 3 on day 11.

With `BrCCC1(CCBr)CCCCC1`, the survivor count (dose: 2400.0 mg/kg/injection, schedule: Q04DX003 (sc), vehicle: water) is given as 3 of 6 on day 11.

As to `N#CN=[N+]([O-])c1ccc(C(=O)O)cc1`, for the setting “dose: 90.0 mg/kg/injection, schedule: Q04DX003 (sc), vehicle: Klucel (hydroxypropylcellulose) (HPC)”, the survivor count was 0 of 6 on day 11.

Turning to `CCOC(=O)N(C)N=NC`, the survivor count runs as follows: (dose: 120.0 mg/kg/injection, schedule: Q04DX003 (ip), vehicle: saline) 2 of 6 on day 11; (dose: 240.0 mg/kg/injection, schedule: Q04DX003 (ip), vehicle: saline) 0 of 6 on day 11.

For `CC[C@](C)(O)C(=O)O[C@H]1C(=O)O[C@@H]2C[C@H]3C(C)=CC(=O)[C@@H](O)[C@]3(C)[C@H]3[C@@]4(O)OC[C@]32[C@@H]1[C@@H](C)[C@H]4O`, the T/C (dose: 0.25 mg/kg/injection, schedule: Q01DX010 (sc), vehicle: Klucel (hydroxypropylcellulose) (HPC)) was 141 % of control. The survivor count (dose: 2.0 mg/kg/injection, schedule: Q01DX010 (sc), vehicle: Klucel (hydroxypropylcellulose) (HPC)) is listed as 1 of 3 on day 11.

For `CN(C)CCC(=O)C(=Cc1ccc(O)cc1)C(=O)CCN(C)C`, the survivor count was 2 of 6 on day 11 (dose: 300.0 mg/kg/injection, schedule: Q04DX003 (ip), vehicle: saline) and 0 of 6 on day 11 (dose: 600.0 mg/kg/injection, schedule: Q04DX003 (ip), vehicle: saline).

Take `CNc1nc(N(C)C)nc(N(C)C)n1`: the survivor count (dose: 120.0 mg/kg/injection, schedule: Q01DX010 (sc), vehicle: other) is on record as 0 of 3 on day 11.

Take `O=C(O)CP(=O)(O)O`: the survivor count (dose: 2400.0 mg/kg/injection, schedule: Q04DX003 (sc), vehicle: saline) is given as 1 of 6 on day 11.
